# PubChem BioAssay AID1508587, Peter MacCallum Cancer Centre, 2020
# Aim: 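Knockdowns that add to vemurafenib's cut in melanoma glycolysis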 (follow-up of hits)
# System: human WM266.4 melanoma cells with a BRAF V600 mutation
# Reagent: single siRNA against human genes, 25 nM
# Timing: 96 h
# Conditions: vemurafenib 300 nM (about IC25), given 48 h after transfection for 48 h
# Read-out: 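Per-cell lactate from absorbance divided by DAPI nucleus counts, compared with and without vemurafenib, relative to non-targeting siRNA, mean of 2 replicates; nuclear counts also give cell number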
# Direction: lactate per cell, drug vs no drug: higher = less drug-induced drop in lactate per cell; lactate per cell with vemurafenib: higher = more lactate per cell under drug; lactate per cell without drug: higher = more lactate per cell without drug; cell growth with vemurafenib and cell growth without drug: higher = more cell growth over 48 h
# Active means: 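a duplex is active when its lactate-per-cell ratio with versus without drug falls under 0.55, i.e. 2 SD below non-targeting; a gene is confirmed if 2 or more of 4 duplexes pass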
# In all, the deposit lists about 1,600 reagents; below is a random part of them. 623 of them (39%) were called active. 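Calls are for each duplex; lactate ratios contain extreme outliers.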 Unmarked entries are inactive. The numbers tell different reagents against one gene apart.
Target gene,reagent no.,"lactate per cell, drug vs no drug",lactate per cell with vemurafenib,lactate per cell without drug,cell growth with vemurafenib,cell growth without drug
FAR1 (fatty acyl-CoA reductase 1),1,0.4 (active),0.56,1,0.9,1.12
FAR1 (fatty acyl-CoA reductase 1),2,0.5 (active),0.69,0.98,0.81,1.09
FAR1 (fatty acyl-CoA reductase 1),3,0.68,1.35,1.42,0.19,0.19
FAR1 (fatty acyl-CoA reductase 1),4,0.68,2.02,2.21,-0.12,-0.06
LRRN3 (leucine rich repeat neuronal 3),1,0.61,1.04,1.22,0.67,0.72
LRRN3 (leucine rich repeat neuronal 3),2,0.77,1.23,1.16,0.6,0.61
LRRN3 (leucine rich repeat neuronal 3),3,0.48 (active),0.79,1.22,0.16,0.17
LRRN3 (leucine rich repeat neuronal 3),4,0.55,1.38,1.79,0.62,0.32
SHMT1 (serine hydroxymethyltransferase 1),1,1.04,2.56,1.6,0.35,0.56
SHMT1 (serine hydroxymethyltransferase 1),2,0.64,1.73,1.8,0.24,0.18
SHMT1 (serine hydroxymethyltransferase 1),3,0.66,1.08,1.07,0.82,0.81
SHMT1 (serine hydroxymethyltransferase 1),4,0.7,1.5,1.4,0.51,0.58
IQGAP2 (IQ motif containing GTPase activating protein 2),1,0.68,1.81,1.57,0.29,0.37
IQGAP2 (IQ motif containing GTPase activating protein 2),2,0.44 (active),0.92,1.23,0.74,0.6
IQGAP2 (IQ motif containing GTPase activating protein 2),3,0.68,0.98,0.86,0.78,1.08
IQGAP2 (IQ motif containing GTPase activating protein 2),4,0.5 (active),0.76,0.9,0.68,0.91
DHPS (deoxyhypusine synthase),1,0.62,1.53,1.59,0.34,0.29
DHPS (deoxyhypusine synthase),2,0.72,1.88,1.73,0.41,0.3
DHPS (deoxyhypusine synthase),3,0.64,2.83,2.99,0.18,0.05
DHPS (deoxyhypusine synthase),4,4.95,56.6,6.11,-0.24,-0.1
IMMT (inner membrane mitochondrial protein),1,0.66,1.21,1.14,0.78,0.72
IMMT (inner membrane mitochondrial protein),2,0.35 (active),0.52,1,0.43,0.53
IMMT (inner membrane mitochondrial protein),3,0.58,0.98,1.07,0.8,0.88
IMMT (inner membrane mitochondrial protein),4,0.82,1.64,1.28,0.67,0.81
PRPF40B (pre-mRNA processing factor 40B),1,0.37 (active),0.57,1.09,0.38,0.48
PRPF40B (pre-mRNA processing factor 40B),2,0.55,1.08,1.35,0.97,0.67
PRPF40B (pre-mRNA processing factor 40B),3,0.53 (active),1.8,2.3,0.52,0.27
PRPF40B (pre-mRNA processing factor 40B),4,0.4 (active),1.58,2.68,0.04,0.04
RCOR3 (REST corepressor 3),1,0.42 (active),5.27,8.04,-0.03,-0.1
RCOR3 (REST corepressor 3),2,0.47 (active),0.68,0.94,0.83,0.79
RCOR3 (REST corepressor 3),3,0.6,0.88,0.9,0.41,0.43
RCOR3 (REST corepressor 3),4,0.82,1.75,1.34,0.28,0.57
YBEY (ybeY metalloendoribonuclease),1,0.7,2,1.89,-0.11,0.2
YBEY (ybeY metalloendoribonuclease),2,0.6,1.75,1.9,-0.01,0.07
YBEY (ybeY metalloendoribonuclease),3,0.3 (active),0.42,0.9,0.06,0.01
YBEY (ybeY metalloendoribonuclease),4,0.58,1.12,1.29,0.92,0.61
TNPO3 (transportin 3),1,0.74,1.82,1.66,0.11,0.11
TNPO3 (transportin 3),2,0.26 (active),2.01,5.16,-0.06,-0.07
TNPO3 (transportin 3),3,0.58,1.06,1.25,0.11,0.12
TNPO3 (transportin 3),4,0.7,0.74,0.72,0.35,0.88
CTHRC1 (collagen triple helix repeat containing 1),1,0.75,1.21,1.17,0.74,0.83
CTHRC1 (collagen triple helix repeat containing 1),2,0.1 (active),0.11,0.76,-0.02,0.24
CTHRC1 (collagen triple helix repeat containing 1),3,0.72,2.24,2.25,0.04,0.03
CTHRC1 (collagen triple helix repeat containing 1),4,0.65,0.69,0.76,0.59,0.84
FABP7 (fatty acid binding protein 7),1,0.43 (active),0.88,1.21,0.55,0.49
FABP7 (fatty acid binding protein 7),2,0.52 (active),1.17,1.34,0.37,0.46
FABP7 (fatty acid binding protein 7),3,0.5 (active),0.7,0.81,1.04,0.98
FABP7 (fatty acid binding protein 7),4,0.48 (active),0.72,0.86,0.76,0.99
TMEM184A (transmembrane protein 184A),1,0.56,0.83,0.97,0.74,0.92
TMEM184A (transmembrane protein 184A),2,1.07,3.22,1.96,-0.28,-0.12
TMEM184A (transmembrane protein 184A),3,0.71,2.24,2.1,0.16,0.27
TMEM184A (transmembrane protein 184A),4,0.57,0.85,0.97,0.9,0.66
CLEC14A (C-type lectin domain containing 14A),1,0.61,1.02,1.12,0.67,0.62
CLEC14A (C-type lectin domain containing 14A),2,0.76,1.5,1.34,0.35,0.39
CLEC14A (C-type lectin domain containing 14A),3,0.8,1.64,1.38,0.37,0.26
CLEC14A (C-type lectin domain containing 14A),4,0.7,1.82,1.72,-0.04,-0.06
CGAS (cyclic GMP-AMP synthase),1,0.64,0.74,0.84,0.1,0.55
CGAS (cyclic GMP-AMP synthase),2,0.58,0.88,1.12,1.04,1.01
CGAS (cyclic GMP-AMP synthase),3,0.54 (active),0.58,0.76,0.74,1.36
CGAS (cyclic GMP-AMP synthase),4,0.5 (active),1.01,1.45,0.41,0.31
EDC4 (enhancer of mRNA decapping 4),1,0.67,1.66,1.75,0.02,0.03
EDC4 (enhancer of mRNA decapping 4),2,0.81,2.42,2.02,0.1,0.16
EDC4 (enhancer of mRNA decapping 4),3,0.55,1.28,1.6,0.49,0.23
EDC4 (enhancer of mRNA decapping 4),4,0.38 (active),1.2,2.13,0.4,0.01

Already shown: entries from further up.
Target gene,reagent no.,"lactate per cell, drug vs no drug",lactate per cell with vemurafenib,lactate per cell without drug,cell growth with vemurafenib,cell growth without drug
CLEC14A (C-type lectin domain containing 14A),3,0.8,1.64,1.38,0.37,0.26
CLEC14A (C-type lectin domain containing 14A),4,0.7,1.82,1.72,-0.04,-0.06
CGAS (cyclic GMP-AMP synthase),1,0.64,0.74,0.84,0.1,0.55
CGAS (cyclic GMP-AMP synthase),2,0.58,0.88,1.12,1.04,1.01
CGAS (cyclic GMP-AMP synthase),3,0.54 (active),0.58,0.76,0.74,1.36
CGAS (cyclic GMP-AMP synthase),4,0.5 (active),1.01,1.45,0.41,0.31
